Among the data in US9050249B2, “Oral pharmaceutical compositions in timed-release particle form and fast-disintegrating tablets containing this composition” (ASTELLAS PHARMA INC., priority 2004, dated 2015) are Astringent taste and Bitter taste values, retold here.

Where a name gives a salt, the structure may show the parent alone.

The series is described as follows: Sensory tests (bitter taste and astringent taste). Type of series: in vivo, healthy adults. Also on record: key: −: Did not notice an unpleasant taste; ±: noticed a slight change in taste, but it could be tolerated; +: noticed an unpleasant taste; ++: noticed a strong unpleasant taste. The following applies: 50 mg imipramine hydrochloride.
[1] abbreviates: Tester No.1, 1 minute after administration.
Where [2] appears, read: Tester No.1, 3 minutes after administration.
The mark [3] stands for this setting: Tester No.1, 5 minutes after administration.
Where [4] appears, read: Tester No.1, 7 minutes after administration.
Where [5] appears, read: Tester No.2, 1 minute after administration.
Setting [6] is: Tester No.2, 3 minutes after administration.
Where [7] appears, read: Tester No.2, 5 minutes after administration.
Where [8] appears, read: Tester No.2, 7 minutes after administration.
The mark [9] stands for this setting: Tester No.3, 1 minute after administration.
Where [10] appears, read: Tester No.3, 3 minutes after administration.
Setting [11] is: Tester No.3, 5 minutes after administration.
The mark [12] stands for this setting: Tester No.3, 7 minutes after administration.

For the molecule `CN(C)CCCN1c2ccccc2CCc2ccccc21` [imipramine hydrochloride], the Astringent taste result is listed as “−” under setting [1]; “+” under setting [2]; “+” under setting [3]; “++” under setting [4]; “±” under setting [5]; “+” under setting [6]. Further, the Astringent taste result under setting [7] is reported as “+”; the Astringent taste result under setting [8] is “+”; the Astringent taste result under setting [9] is listed as “+”; the Astringent taste result under setting [10] was “+”; the Astringent taste result under setting [11] was “+”; the Astringent taste result under setting [12] is given as “+”. Besides, the Bitter taste entry under setting [1] is recorded as “±”; the Bitter taste entry under setting [2] was “+”; the Bitter taste entry under setting [3] is “−”; the Bitter taste entry under setting [4] is given as “−”; the Bitter taste result under setting [5] is reported as “±”; the Bitter taste result under setting [6] was “+”. Besides, the Bitter taste result under setting [7] was “−”; the Bitter taste result under setting [8] was “−”; the Bitter taste entry under setting [9] is “+”; the Bitter taste entry under setting [10] is recorded as “±”; the Bitter taste entry under setting [11] is recorded as “−”; the Bitter taste result under setting [12] is listed as “−”.
